Reference: PubChem BioAssay AID504791 (Drosophila RNAi Screening Center, 2011)
The screen tested about 23,000 reagents; this is a random part of those with a known target gene and a result. In the full data, 199 (0.86%) are marked active. 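Plate-scaled ratios behind the calls are not deposited; printed light signals are raw; many rows marked increased or decreased are still called inactive.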 Unmarked entries are inactive. Names joined by + are all predicted targets of the reagent. Further read-outs or replicates are left out here. Not stated in the record: the direction of the score.

Screen: 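Factors in Argonaute-based small RNA production and activity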 (primary screen)
Cell system: Drosophila S2-derived reporter cells
Reagent: long dsRNA against Drosophila genes, about 150-250 ng dsRNA per well (siRNA assay); about 80-120 ng (miRNA assay)
Duration: about 5 days (siRNA assay); about 4 days (miRNA assay)
Treatment: copper sulfate induction of reporters: 25 µM (siRNA assay); 200 mM stated (miRNA assay), 1-2 days before reading
Read-out: 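Per-well ratio of Renilla over firefly light, expressed relative to that plate's average ratio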
Rule for the call: 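a well was a first-pass pick when its plate-scaled ratio rose above 1.5 (siRNA assay) or 1.6 (miRNA assay), or dropped below 0.6; a gene counted only if two separate dsRNAs agreed on retest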

no.	target gene	dsRNA	stable siRNA reporter change	miRNA reporter change	stable assay Renilla, run 1 (luminescence)
1	Acp76A	DRSC09665			6267
2	Or49a	DRSC07493			5983
3	CG14191	DRSC19546			6066
4	Hexo1	DRSC08663			6879
5	Vav	DRSC20384		reporter ratio lowered past the hit cutoff	5854
6	CG15308	DRSC17995			5534
7	Slmap	DRSC03799			4688
8	CG16753	DRSC08489			7099
9	NijA	DRSC10637		reporter ratio raised past the hit cutoff	7256
10	cert	DRSC09674			7885
11	indra	DRSC08558			10575
12	Cad74A	DRSC10636			8684
13	PGRP-LD + Pmi	DRSC10512			8215
14	PGRP-LD + Pmi	DRSC10513			4164
15	mRpL33	DRSC18319			5538
16	CG32214	DRSC09613			5759
17	CG4660	DRSC18378			6023
18	Galt	DRSC03161			3.01e5
19	CG5521	DRSC15828			6303
20	CG1387	DRSC17904			8447
21	plum	DRSC16054			8078
22	CG13561	DRSC04199			6155
23	ATPsynbetaL	DRSC10503			7211
24	NTPase	DRSC00761			9527
25	CG14194	DRSC19549			6416
26	CG14759	DRSC06494			7787
27	CG14502	DRSC06473			8974
28	jbug	DRSC03952			5722
29	jbug	DRSC04114			6631
30	jbug	DRSC04167			5639
31	jbug	DRSC04388			6906
32	CG13375	DRSC18621			6527
33	CG6974	DRSC16160			7522
34	Vha100-1	DRSC14148			8800
35	vls	DRSC02101			56275
36	Coq3	DRSC03168			7334
37	DNAlig4	DRSC19436			5544
38	SmD1	DRSC09800	reporter ratio raised past the hit cutoff (active)		19794
39	Acsx2	DRSC14308			7784
40	CG9164	DRSC19087			4127
41	CG9164	DRSC20162			8336
42	PIG-X	DRSC22721			4607
43	CG31751	DRSC02464			6599
44	CG31751	DRSC02465			6726
45	CG14005	DRSC02337			18081
46	spn-B	DRSC17063			6883
47	CG18563	DRSC02676			8791
48	CG33255 (retired record) + hpRNA:CR32205 + hpRNA:CR32207	DRSC09617			6115
49	CG7065	DRSC18420		reporter ratio raised past the hit cutoff (active)	11856
50	Polr1C	DRSC02719			11049
51	zye	DRSC11784			7039
52	Mlc1	DRSC16740			6899
53	Gs1	DRSC00753			11201
54	Smyd4-1	DRSC06785	reporter ratio raised past the hit cutoff		11217
55	Smyd4-1	DRSC27142		reporter ratio raised past the hit cutoff	
56	Prx6c	DRSC06080			5624
57	Stoml2	DRSC04326			9411
58	Or67d	DRSC10158			6327
59	CG30177	DRSC22680			4068
60	Amy-d + Amy-p	DRSC21242			5524
61	CG13728	DRSC10056			8203
62	Mettl14	DRSC03073			1.62e5
63	flr	DRSC09787			8272
64	Pus1	DRSC15548			6868
65	CG17140 + CG17139	DRSC02585			7491
66	CG17140 + CG17139	DRSC02586			7816
67	CG8093	DRSC07078			5879
68	Uba4	DRSC02194			6876

Next part (7 carried over from the part before).
no.	target gene	dsRNA	stable siRNA reporter change	miRNA reporter change	stable assay Renilla, run 1 (luminescence)
62	Mettl14	DRSC03073			1.62e5
63	flr	DRSC09787			8272
64	Pus1	DRSC15548			6868
65	CG17140 + CG17139	DRSC02585			7491
66	CG17140 + CG17139	DRSC02586			7816
67	CG8093	DRSC07078			5879
68	Uba4	DRSC02194			6876
69	CG4438	DRSC02746			7528
70	obst-B	DRSC01987			46484
71	CG7606	DRSC13246			3575
72	CG7606	DRSC16268			6534
73	Srp54k	DRSC11289			6854
74	CG18233	DRSC10308			6770
75	CG10646	DRSC09764			4371
76	CG11309	DRSC11650			12081
77	CG42355	DRSC07967			5468
78	CG18469	DRSC21838			8654
79	Loxl1	DRSC14303			6494
80	mGluR	DRSC17215			6734
81	inaF-C	DRSC18902			4375
82	Ptp10D	DRSC20272			4524
83	CG6511	DRSC10656			6315
84	CG15145	DRSC02446			6667
85	Ifrd1	DRSC00415			6772
86	Ifrd1	DRSC00566			6251
87	Hrd3	DRSC14156			8546
88	Ip6k	DRSC04054			10167
89	CG11997	DRSC14464			6742
90	Tsp42Eo	DRSC06184			7922
91	CG11878	DRSC14422			9055
92	CG5245	DRSC15750			6124
93	Srg1	DRSC14640			6806
94	Mlc2	DRSC16741			7764
95	Tdc1	DRSC04942			5051
96	Octbeta3R	DRSC15351			6379
97	Octbeta3R	DRSC16191			6468
98	Octbeta3R	DRSC21853			8351
99	Octbeta3R	DRSC21902			8532
100	Octbeta3R	DRSC22350			9742
101	betaNACtes6	DRSC22925			5336
102	CG7407	DRSC11824			7863
103	Pstk + CG14210 + Tim9b	DRSC19566			6011
104	Gar1	DRSC04441			5891
105	Aef1	DRSC11605			7722
106	CG34135	DRSC12702			6022
